We go through one substance from PMC12831199.

By UniProt entry, the sequences of proteins in these tests, tags left out. Where a name states a change or a piece, a line headed by the entry shows the natural chain unless it says otherwise. Residues count along the entry.
UniProt P23201, residues 1-124: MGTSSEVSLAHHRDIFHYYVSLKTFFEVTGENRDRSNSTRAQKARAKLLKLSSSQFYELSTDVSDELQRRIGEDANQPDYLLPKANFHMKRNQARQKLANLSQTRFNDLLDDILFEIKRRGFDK
UniProt Q12317: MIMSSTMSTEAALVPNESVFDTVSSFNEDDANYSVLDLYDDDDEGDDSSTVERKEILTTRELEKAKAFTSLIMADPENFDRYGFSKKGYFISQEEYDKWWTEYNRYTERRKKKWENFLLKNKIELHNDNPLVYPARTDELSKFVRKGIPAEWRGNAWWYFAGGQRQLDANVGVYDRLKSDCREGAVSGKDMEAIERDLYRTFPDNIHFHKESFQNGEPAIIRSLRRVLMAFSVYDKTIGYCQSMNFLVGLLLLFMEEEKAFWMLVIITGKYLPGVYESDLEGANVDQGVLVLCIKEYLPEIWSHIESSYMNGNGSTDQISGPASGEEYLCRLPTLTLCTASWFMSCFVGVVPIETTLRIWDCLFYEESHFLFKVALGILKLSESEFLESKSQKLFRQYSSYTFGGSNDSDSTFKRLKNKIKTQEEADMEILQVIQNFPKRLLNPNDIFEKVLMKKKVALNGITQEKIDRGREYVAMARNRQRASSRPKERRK

For the test, the target named is SHD1CRU (Saccharomyces cerevisiae) (UniProt P23201). In words: split reporter; small-scale Split-Ub: diploid cells co-expressing a Nub and a CRU fusion spotted in 10-fold serial dilutions from OD600=1 on SD medium with 5-FOA, 30°C, 2-5 days.

No constants are given. Whether binding was seen depends on the method and setting. In cells and extracts the contact can be indirect. Binding can be weak; no strength is given.

On to “Nub fusion of Msb4 with the D0A exchange (from UniProt Q12317)”, for which the binding entry is listed as “binds”.
